To fix the notation:
B1: Nono (protein, UniProt Q99K48 1-473)
chain: MQSNKAFNLEKQNHTPRKHHQHHHQQHHQQQQQQQQQQPPPPIPANGQQASSQNEGLTIDLKNFRKPGEKTFTQRSRLFVGNLPPDITEEEMRKLFEKYGKAGEVFIHKDKGFGFIRLETRTLAEIAKVELDNMPLRGKQLRVRFACHSASLTVRNLPQYVSNELLEEAFSVFGQVERAVVIVDDRGRPSGKGIVEFSGKPAARKALDRCSEGSFLLTTFPRPVTVEPMDQLDDEEGLPEKLVIKNQQFHKEREQPPRFAQPGSFEYEYAMRWKALIEMEKQQQDQVDRNIKEAREKLEMEMEAARHEHQVMLMRQDLMRRQEELRRMEELHNQEVQKRKQLELRQEEERRRREEEMRRQQEEMMRRQQEGFKGTFPDAREQEIRMGQMAMGGAMGINNRGAMPPAPVPPGTPAPPGPATMMPDGTLGLTPPTTERFGQAATMEGIGAIGGTPPAFNRPAPGAEFAPNKRRRY
B2: Sfpq (protein, UniProt Q8VIJ6 1-699)
chain: MSRDRFRSRGGGGGGFHRRGGGGGRGGLHDFRSPPPGMGLNQNRGPMGPGPGGPKPPLPPPPPHQQQQQPPPQQPPPQQPPPHQQPPPHQPPHQQPPPPPQESKPVVPQGPGSAPGVSSAPPPAVSAPPANPPTTGAPPGPGPTPTPPPAVPSTAPGPPPPSTPSSGVSTTPPQTGGPPPPPAGGAGPGPKPGPGPGGPKGGKMPGGPKPGGGPGMGAPGGHPKPPHRGGGEPRGGRQHHAPYHQQHHQGPPPGGPGPRTEEKISDSEGFKANLSLLRRPGEKTYTQRCRLFVGNLPADITEDEFKRLFAKYGEPGEVFINKGKGFGFIKLESRALAEIAKAELDDTPMRGRQLRVRFATHAAALSVRNLSPYVSNELLEEAFSQFGPIERAVVIVDDRGRSTGKGIVEFASKPAARKAFERCSEGVFLLTTTPRPVIVEPLEQLDDEDGLPEKLAQKNPMYQKERETPPRFAQHGTFEYEYSQRWKSLDEMEKQQREQVEKNMKDAKDKLESEMEDAYHEHQANLLRQDLMRRQEELRRMEELHSQEMQKRKEMQLRQEEERRRREEEMMIRQREMEEQMRRQREESYSRMGYMDPRERDMRMGGGGTMNMGDPYGSGGQKFPPLGGGGGIGYEANPGVPPATMSGSMMGSDMRTERFGQGGAGPVGGQGPRGMGPGTPAGYGRGREEYEGPNKKPRF
B3: Mybbp1a (protein, UniProt Q7TPV4 1-1344)
chain: MAEMKSPTKAEPATPAEAAQSDRHSLLEHSREFLDFFWDIAKPDQETRLRATEKLLEYLRTRPNDSEMKYALKRLITGLGVGREAARPCYSLALAQLLQSFEDIPLCDILDQIQEKYSLQAMNKAMMRPSLFANLFGVLALFQSGRLVKDKEALMKSVQLLKILSQHPNHLQGQPIKALVDILSEVPESMFQEILPKVLKGNMKVILRSPKYLELFLLAKQRVPTKLESLMGSVDLFSEDNIPSLVNILKVAANSVKKEHKLPNVALDLLRLALKESRFELFWKKVLEEGLLKNPSWTSSYMCFRLLGASLPLLSEEQLQLVMRGDLIRHFGENMVISKPQNLFKIIPEISTYVGTFLEGCQDDPKRQLTMMVAFTTITNQGLPVMPTFWRVTRFLNAEALQSYVAWLRDMFLQPDLNSLVDFSTANQKRAQDASLNVPERAVFRLRKWIIHRLVSLVDHLHLEKDEAVVEQIARFCLFHAFFKTKKATPQIPETKQHFSFPLDDRNRGVFVSAFFSLLQTLSVKFRQTPDLAENGKPWTYRLVQLADMLLNHNRNVTSVTSLTTQQRQAWDQMMSTLKELEARSSETRAIAFQHLLLLVGLHIFKSPAESCDVLGDIQTCIKKSMEQNPRRSRSRAKASQEPVWVEVMVEILLSLLAQPSNLMRQVVRSVFGHICPHLTPRCLQLILAVLSPVTNEDEDDNVVVTDDADEKQLQHGEDEDSDNEDNKNSESDMDSEDGEESEEEDRDKDVDPGFRQQLMEVLKAGNALGGVDNEEEEELGDEAMMALDQNLASLFKEQKMRIQARNEEKNKLQKEKKLRRDFQIRALDLIEVLVTKQPEHPLILELLEPLLNVIQHSMRSKGSTKQEQDLLHKTARIFMHHLCRARRYCHEVGPCAEALHAQVERLVQQAGSQADASVALYYFNASLYLLRVLKGNTNKRHQDGHKLHGADTEDSEDQAANCLDLDFVTRVYSASLESLLTKRNSSLTVPMFLSLFSRYPVICKNLLPVLAQHVAGPSRPRHQAQACLMLQKTLSARELRVCFEDPEWEQLITQLLGKATQTLQTLGEAQSKGEHQKELSILELLNTLLRTVNHEKLSVDLTAPLGVLQSKQQKLQQSLQQGNHSSGSNRLYDLYWQAMRMLGVQRPKSEKKNAKDIPSDTQSPVSTKRKKKGFLPETKKRKKLKSEGTTPEKNAASQQDAVTEGAMPAATGKDQPPSTGKKKRKRVKASTPSQVNGITGAKSPAPSNPTLSPSTPAKTPKLQKKKEKLSQVNGATPVSPIEPESKKHHQEALSTKEVIRKSPHPQSALPKKRARLSLVSRSPSLLQSGVKKRRVASRRVQTP

Sequences of proteins named here, by UniProt entry; tags and fusion partners are left off.
UniProt Q61466: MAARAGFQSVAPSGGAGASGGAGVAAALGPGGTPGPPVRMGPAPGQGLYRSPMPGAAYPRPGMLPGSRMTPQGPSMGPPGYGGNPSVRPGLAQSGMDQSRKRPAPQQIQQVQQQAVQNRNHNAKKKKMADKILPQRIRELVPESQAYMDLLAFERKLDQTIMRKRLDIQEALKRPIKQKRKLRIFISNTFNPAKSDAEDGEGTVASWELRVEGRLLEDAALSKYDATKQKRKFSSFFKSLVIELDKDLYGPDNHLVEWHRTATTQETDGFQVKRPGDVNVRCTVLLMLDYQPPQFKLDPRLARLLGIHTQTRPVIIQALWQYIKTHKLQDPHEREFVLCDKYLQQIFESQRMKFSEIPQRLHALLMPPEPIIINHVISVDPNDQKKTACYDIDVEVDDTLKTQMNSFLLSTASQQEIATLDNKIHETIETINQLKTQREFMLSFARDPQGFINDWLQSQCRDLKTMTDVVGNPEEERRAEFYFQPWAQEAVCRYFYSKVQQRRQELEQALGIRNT
UniProt P97496: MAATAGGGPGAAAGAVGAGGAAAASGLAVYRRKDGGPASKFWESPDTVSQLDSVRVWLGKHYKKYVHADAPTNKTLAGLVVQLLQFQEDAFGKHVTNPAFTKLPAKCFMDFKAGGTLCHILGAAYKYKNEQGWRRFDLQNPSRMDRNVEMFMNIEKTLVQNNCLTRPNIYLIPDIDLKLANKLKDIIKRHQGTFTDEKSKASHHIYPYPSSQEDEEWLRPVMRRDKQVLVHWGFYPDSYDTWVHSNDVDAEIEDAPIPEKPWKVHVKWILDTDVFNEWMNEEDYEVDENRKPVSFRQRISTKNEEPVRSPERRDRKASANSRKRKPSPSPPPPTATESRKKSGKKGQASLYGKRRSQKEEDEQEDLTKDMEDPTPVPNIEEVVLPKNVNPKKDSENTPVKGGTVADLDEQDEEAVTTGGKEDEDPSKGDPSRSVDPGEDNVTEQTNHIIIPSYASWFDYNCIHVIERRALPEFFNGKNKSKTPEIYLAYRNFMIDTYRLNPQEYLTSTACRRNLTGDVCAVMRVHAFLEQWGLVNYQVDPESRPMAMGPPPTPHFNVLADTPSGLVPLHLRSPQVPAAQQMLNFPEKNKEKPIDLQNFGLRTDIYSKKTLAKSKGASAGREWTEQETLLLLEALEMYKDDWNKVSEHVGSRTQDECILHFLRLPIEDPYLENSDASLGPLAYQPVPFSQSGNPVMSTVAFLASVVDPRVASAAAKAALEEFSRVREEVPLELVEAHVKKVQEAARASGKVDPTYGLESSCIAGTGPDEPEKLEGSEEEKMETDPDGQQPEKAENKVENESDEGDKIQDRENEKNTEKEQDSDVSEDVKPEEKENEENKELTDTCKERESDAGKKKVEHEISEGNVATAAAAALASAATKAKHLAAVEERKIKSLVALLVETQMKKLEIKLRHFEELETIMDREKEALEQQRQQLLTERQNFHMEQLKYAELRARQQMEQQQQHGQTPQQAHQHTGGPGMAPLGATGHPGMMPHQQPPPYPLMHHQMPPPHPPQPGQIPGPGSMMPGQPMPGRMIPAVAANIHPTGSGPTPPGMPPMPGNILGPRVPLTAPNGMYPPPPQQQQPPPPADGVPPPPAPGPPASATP

These are yes or no findings as the source states them, for the method shown. In cells and extracts the contact can be indirect. Here binding means that the protein was enriched with, or labelled near, the bait; the list need not be complete.

This is an account of results in PMC9161502.

The test has as its target T1, POGZ (endogenous, mouse ESCs) (mouse (endogenous in mESCs R1)) (UniProt Q8BZH4).
T1 sequence: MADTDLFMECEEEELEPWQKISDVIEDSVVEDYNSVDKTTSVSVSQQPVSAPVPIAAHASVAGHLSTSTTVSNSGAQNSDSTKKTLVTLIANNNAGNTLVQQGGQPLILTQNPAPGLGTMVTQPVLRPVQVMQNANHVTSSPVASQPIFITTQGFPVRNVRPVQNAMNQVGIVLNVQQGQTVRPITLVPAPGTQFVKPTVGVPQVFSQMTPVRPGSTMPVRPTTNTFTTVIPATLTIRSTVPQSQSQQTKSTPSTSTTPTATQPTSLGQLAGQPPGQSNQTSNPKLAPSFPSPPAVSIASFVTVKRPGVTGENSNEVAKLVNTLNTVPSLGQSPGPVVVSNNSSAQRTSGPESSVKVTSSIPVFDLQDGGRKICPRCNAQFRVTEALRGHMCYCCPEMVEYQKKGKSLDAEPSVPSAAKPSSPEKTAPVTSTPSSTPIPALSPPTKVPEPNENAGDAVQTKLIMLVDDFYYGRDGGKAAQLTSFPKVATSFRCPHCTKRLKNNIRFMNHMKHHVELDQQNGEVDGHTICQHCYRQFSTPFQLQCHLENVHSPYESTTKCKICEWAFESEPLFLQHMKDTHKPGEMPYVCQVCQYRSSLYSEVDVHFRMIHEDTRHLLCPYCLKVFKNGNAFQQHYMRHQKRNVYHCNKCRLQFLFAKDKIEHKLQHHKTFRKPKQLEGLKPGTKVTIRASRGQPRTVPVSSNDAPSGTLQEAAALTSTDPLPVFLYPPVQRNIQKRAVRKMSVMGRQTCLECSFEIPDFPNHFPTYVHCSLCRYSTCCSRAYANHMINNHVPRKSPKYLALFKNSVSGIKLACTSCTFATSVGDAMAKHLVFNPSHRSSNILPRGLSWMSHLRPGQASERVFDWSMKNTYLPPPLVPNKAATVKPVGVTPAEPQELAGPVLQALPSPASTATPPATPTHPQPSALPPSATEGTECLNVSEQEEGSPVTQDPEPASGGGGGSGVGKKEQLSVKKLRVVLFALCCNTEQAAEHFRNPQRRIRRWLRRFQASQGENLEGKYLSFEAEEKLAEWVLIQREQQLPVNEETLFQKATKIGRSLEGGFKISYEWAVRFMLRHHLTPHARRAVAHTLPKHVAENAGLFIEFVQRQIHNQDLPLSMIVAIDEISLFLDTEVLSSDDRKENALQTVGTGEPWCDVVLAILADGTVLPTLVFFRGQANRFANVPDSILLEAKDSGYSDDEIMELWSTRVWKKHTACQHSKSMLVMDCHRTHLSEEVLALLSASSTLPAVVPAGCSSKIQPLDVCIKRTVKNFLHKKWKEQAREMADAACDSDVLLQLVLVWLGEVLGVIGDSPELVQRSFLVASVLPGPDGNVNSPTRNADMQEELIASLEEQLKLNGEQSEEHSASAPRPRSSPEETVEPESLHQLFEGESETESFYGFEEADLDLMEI
Description: affinity purification with mass spectrometry; IP from ESC lysate with IgG, POGZ antibody or FLAG antibody on Dynabeads Protein G; whole SDS-PAGE lanes cut, trypsin digest, AB SCIEX Triple TOF 5600 plus; repeated three times.
For the molecule “SMARCD1/BAF60a (from UniProt Q61466 1-515)”, the binding result is listed as “binds”. With “SMARCC1/BAF155 (endogenous, mouse ESCs) (from UniProt P97496 1-1104)” the entry was “binds”; with B1, “binds”; with B2, “binds”. As for B3, the binding entry is recorded as “binds”.
